Test results as given in PubChem BioAssay AID2685 (National Center for Advancing Translational Sciences (NCATS), 2010).
“And” between values parts separate entries of the source, which are not always exact repeats. Equal entries are not always repeated. This is one part of the list. These are further read-outs of the screen, such as a control signal, another cell line or another target. No call is given for them. Most of these compounds were active or inconclusive in the main read-out, so they are no random draw. Words in brackets tell the shape of the fitted curve; partial curves, single points and poor fits give uncertain potencies.

Test: qHTS Assay for Lipid Storage Modulators in Drosophila S3 Cells;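 on cell number change: cells counted by Cell Tracker Red CMTPX staining in the red channel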
Conditions: BODIPY lipid droplet fluorescence, 18-24 h; for cell number change: measured here: cell count max response, cells fed with added oleic acid
In short: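 Drosophila S3 cells got compounds at several concentrations plus oleic acid (400 uM solution). Laser-scanning cytometry with 488 nm excitation read lipid droplets at 500-530 nm and cells at 575-640 nm. Percent activity was relative to 20 uM Triacsin C.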

[1] = measured here: cell number channel AC50, cells fed with added oleic acid
[2] = measured here: lipid fluorescence (Fed channel) AC50, cells fed with added oleic acid

For `CCOc1ccc(OCCN2C(=O)NC(Cc3c[nH]c4ccccc34)C2=O)cc1` (stereo unspecified), the cell number change was 97.5% and the AC50 [1] was 29.1 µM [rising, single point].
In the case of `CC(C)Cn1c(O)c(/C=C2\C=NN=C2c2ccccc2)sc1=S`, the cell number change is reported as -18% and the AC50 [1] is reported as 3.26 µM [rising, single point].
In the case of `COc1ccc(Cc2nnc(SCC(=O)Nc3ccc(C)cc3C)[nH]c2=O)cc1`, the cell number change is reported as 0.299%, the AC50 [1] is reported as 4.11 µM [falling, single point] and the AC50 [2] is reported as 4.61 µM [falling, single point].
With `C/C(=N\NC(=O)c1cccc(S(=O)(=O)N2CCCC2)c1)c1ccc(C)cc1` the cell number change was 21.2%.
With `CC(C)c1cc(CNC(=O)c2ccc(OC3CCN(Cc4ccccn4)CC3)cc2)on1` the cell number change was -36.3%, the AC50 [1] was 20.6 µM [falling, partial curve] and the AC50 [2] was 29.1 µM [falling, single point].
In the case of `Cc1ccc(C)c(OCCCNC2CCCC2)c1C`, the cell number change is reported as -27.6% and the AC50 [2] is reported as 0.58 µM [falling, full curve].
For `Cn1c(=O)c2c(nc(CN3CCC(C(N)=O)CC3)n2Cc2ccccc2F)n(C)c1=O`, the cell number change was 15.5% and the AC50 [2] was 0.0731 µM [falling, single point].
For `COC(=O)[C@H](Cc1ccccc1)NC(=O)NCc1ccccc1`, the cell number change was -2.11%.
With `C=CCn1c(COc2ccc(F)cc2)nnc1SCC(=O)N1CC(=O)Nc2ccccc21` the cell number change was -27.3% and the AC50 [2] was 5.17 µM [falling, full curve, poor fit].
For `O=C1CN(C(=O)CSc2nc3c(cnn3-c3ccccc3)c(=O)[nH]2)c2ccccc2N1`, the cell number change was 0.778% and the AC50 [2] was 0.092 µM [rising, full curve, poor fit].
In the case of `O=c1cc(CNCCCO)c2ccccc2[nH]1`, the cell number change is reported as -0.714% and the AC50 [2] is reported as 0.58 µM [rising, single point].
With `CN1/C(=C\C=N\NC(=O)c2cccnc2)C(C)(C)c2ccccc21` the cell number change was -0.33%.
In the case of `CCN(CC)C(CNC(=O)CSc1nnnn1-c1ccc(C)c(C)c1)c1ccco1` (stereo unspecified), the cell number change is reported as -14.2%, the AC50 [1] is reported as 5.8 µM [falling, single point] and the AC50 [2] is reported as 3.66 µM [falling, single point].
For `COc1ccc(C)cc1NC(=O)c1nn(C)cc1Br`, the cell number change was 24.3% and the AC50 [1] was 0.731 µM [rising, full curve, poor fit].
In the case of `CSc1cccc(NC(=O)CN(C)S(=O)(=O)c2ccc(F)cc2)c1`, the cell number change is reported as 0.781% and the AC50 [2] is reported as 6.51 µM [rising, single point].
In the case of `COc1ccc(NC(=O)COC(=O)c2ccccc2SCC(=O)N2CCCC2)cc1`, the AC50 [1] is reported as 6.51 µM [rising, single point] and the AC50 [2] is reported as 4.61 µM [rising, single point].
In the case of `COc1c(Br)cc(Br)cc1C(=O)O`, the AC50 [2] is reported as 8.2 µM [falling, partial curve].
With `COCCNC(=O)/C(C#N)=C/c1cc(C)n(-c2ccc(C)cc2)c1C` the cell number change was 2.41% and the AC50 [2] was 1.84 µM [falling, single point].
With `O=C(CCS(=O)(=O)c1cc2c(cc1Cl)NC(=O)CO2)NCc1ccc(F)cc1` the cell number change was 5.76% and the AC50 [2] was 6.51 µM [rising, single point].
In the case of `CCc1ccc(OC(C)C(=O)Nc2ccc(S(=O)(=O)Nc3nccs3)cc2)cc1` (stereo unspecified), the cell number change is reported as -5.22% and the AC50 [2] is reported as 0.58 µM [falling, single point].
In the case of `CCN(c1ccccc1)S(=O)(=O)c1ccc(C(=O)Nc2nnc(-c3ccco3)o2)cc1`, the cell number change is reported as -18.5% and the AC50 [2] is reported as 14.6 µM [falling, single point].
For `Cc1sc2ncn(CC(=O)NC3CCCCC3)c(=O)c2c1C`, the cell number change was 15.3% and the AC50 [2] was 0.326 µM [rising, full curve, poor fit].
With `Cc1ccc(S(=O)(=O)c2c(N)n(NC(=O)c3ccccc3C)c3nc4ccccc4nc23)cc1` the AC50 [1] was 2.06 µM [rising, partial curve] and the AC50 [2] was 2.59 µM [rising, partial curve].
In the case of `c1cnc(SCCCOc2ccc3ccccc3c2)nc1`, the cell number change is reported as 58.4%, the AC50 [1] is reported as 4.11 µM [rising, partial curve, poor fit] and the AC50 [2] is reported as 29.1 µM [rising, single point].
In the case of `O=C(CNC(=O)c1cc2ccccc2o1)NCc1cccs1`, the cell number change is reported as -69.7% and the AC50 [1] is reported as 29.1 µM [falling, single point].
With `CCN1C(=O)/C(=C2/Sc3ccccc3N2CCCS(=O)(=O)O)SC1=S` the cell number change was -22% and 5.51% and the AC50 [2] was 20.6 µM [falling, single point] and 25.9 µM [rising, single point].
In the case of `COc1ccc(N2CC(C(=O)Nc3nnc(SCC(=O)NC(C)(C)C)s3)CC2=O)cc1` (stereo unspecified), the cell number change is reported as -0.44% and the AC50 [2] is reported as 6.51 µM [falling, single point].
For `CCOc1ccc(C(=O)CSCC(=O)O)cc1`, the cell number change was -11.3% and the AC50 [2] was 6.51 µM [falling, single point].
For `CCOC(=O)C1CCCN(CCC(=O)Nc2cc(OC)ccc2OC)C1` (stereo unspecified), the cell number change was 19.9% and the AC50 [2] was 29.1 µM [rising, single point].
With `CN1C(C(=O)NCc2cccc(C(F)(F)F)c2)CC2Cn3c(nc4ccccc43)C21` (stereo unspecified) the AC50 [2] was 2.31 µM [rising, partial curve].
In the case of `Cc1nc2ccc(S(=O)(=O)NCC(=O)N(C)Cc3ccccc3)cc2s1`, the cell number change is reported as -23.7% and the AC50 [2] is reported as 32.6 µM [falling, single point].
For `O=c1oc(CCCO)cc2ccc(C#Cc3ccsc3)cc12`, the cell number change was -10.3% and the AC50 [2] was 0.146 µM [falling, full curve, poor fit].
With `CCOC(=O)c1nc2ccccc2s1` the cell number change was 2.56% and the AC50 [2] was 23.1 µM [rising, single point].
In the case of `O=C(c1ccccc1)n1ccc(-c2cnc(-c3ccccc3)s2)n1`, the AC50 [1] is reported as 2.06 µM [rising, partial curve] and the AC50 [2] is reported as 2.31 µM [rising, partial curve].
With `Cc1nc2sc(C(c3ccco3)N3CCN(c4ccccc4F)CC3)c(O)n2n1` (stereo unspecified) the cell number change was 13% and the AC50 [1] was 3.66 µM [falling, single point].
In the case of `CC/C(=C/c1sc2ccc(C)cc2[n+]1CCO)SC`, the cell number change is reported as 17.7% and the AC50 [2] is reported as 25.9 µM [rising, single point].
For `Cc1ccc(/C=C/C(=O)OCC(=O)Nc2cccnc2Cl)cc1`, the cell number change was -17.6% and the AC50 [2] was 0.461 µM [falling, single point].
For `Cc1cc(C)nc(SCC(=O)N/N=C\C(Br)=C\c2ccccc2)n1`, the cell number change was 164%, the AC50 [1] was 29.1 µM [rising, single point] and the AC50 [2] was 29.1 µM [rising, single point].
